Reference: patent US8268827B2, “Pyridazinone derivatives as PARP inhibitors” (Istituto di Ricerche di Biologia Molecolare P. Angeletti …, priority 2007, dated 2012)
Counter-ions that a name gives are not always drawn. Some results were stated once for a whole list of compounds, not compound by compound.

Protein sequences, listed by entry. Tags and fused reporters are not part of them.
UniProt P09874, whole entry: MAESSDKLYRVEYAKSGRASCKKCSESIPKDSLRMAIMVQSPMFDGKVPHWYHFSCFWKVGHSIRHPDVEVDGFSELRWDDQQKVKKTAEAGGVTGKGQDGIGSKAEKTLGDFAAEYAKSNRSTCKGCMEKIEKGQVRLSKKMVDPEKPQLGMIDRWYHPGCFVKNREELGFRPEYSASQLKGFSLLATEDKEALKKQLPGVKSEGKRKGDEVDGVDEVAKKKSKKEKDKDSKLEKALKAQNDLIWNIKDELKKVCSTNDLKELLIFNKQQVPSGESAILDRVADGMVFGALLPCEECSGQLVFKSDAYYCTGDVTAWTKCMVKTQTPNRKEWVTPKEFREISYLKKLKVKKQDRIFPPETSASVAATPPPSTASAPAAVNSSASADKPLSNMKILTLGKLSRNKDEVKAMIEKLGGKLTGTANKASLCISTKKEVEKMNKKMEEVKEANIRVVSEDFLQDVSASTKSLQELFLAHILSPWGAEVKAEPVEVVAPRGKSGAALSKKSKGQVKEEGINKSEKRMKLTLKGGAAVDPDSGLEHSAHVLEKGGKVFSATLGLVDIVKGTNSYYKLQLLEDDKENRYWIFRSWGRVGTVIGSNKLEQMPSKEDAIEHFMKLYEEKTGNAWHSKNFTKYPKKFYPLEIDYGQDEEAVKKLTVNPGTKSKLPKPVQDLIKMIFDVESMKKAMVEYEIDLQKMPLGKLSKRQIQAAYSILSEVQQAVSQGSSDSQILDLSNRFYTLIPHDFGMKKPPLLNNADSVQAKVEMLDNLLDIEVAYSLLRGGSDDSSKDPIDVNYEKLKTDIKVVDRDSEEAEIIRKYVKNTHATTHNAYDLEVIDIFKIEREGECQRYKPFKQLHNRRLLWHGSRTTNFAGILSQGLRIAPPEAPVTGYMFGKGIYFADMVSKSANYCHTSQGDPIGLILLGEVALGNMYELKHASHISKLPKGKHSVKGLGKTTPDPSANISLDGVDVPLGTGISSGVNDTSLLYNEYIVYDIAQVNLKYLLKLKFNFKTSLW

These compounds were tested against T1, PARP-1 (Homo sapiens, UniProt P09874) (assay: PARP-1 SPA assay).
T1 construct: purchased Trevigen 4668-500-01
Format: biochemical
Method: Assay buffer: 100 mM Tris pH 8, 4 mM MgCl2, 4 mM Spermine, 200 mM KCl, 0.04% Nonidet P-40.
Nicotinamide-adenine dinucleotide (NAD)/DNA Mix: [^3H-NAD] (250 uCi/ml, 0.4 ul, Perkin-Elmer NET-443H), NAD (1.5 mM, 0.05 ul, SIGMA N-1511), Biotinylated-NAD (250 uM, 0.03 ul, Trevigen 4670-500-01), Activated calf thymus (1 mg/ml, 0.05 ul, Amersham Biosciences 27-4575), H2O (to 10 ul).
Developing Mix: Streptavidin SPA beads (5 mg/ml, Amersham Biosciences RPNQ 0007) dissolved in 500 mM EDTA.
The reaction is performed in 96-well microplate with a final volume of 50 uL/well. Add 5 ul 5% DMSO/compound solution, add enzyme mix (35 ul), start the reaction by adding NAD/DNA mix (10 uL) and incubate for 2 hrs at RT. Stop the reaction by adding developing mix (25 ul) and incubate 15 min at RT. Measure using a Packard TOP COUNT instrument.
In the case of Cc1c(Cc2ccc(F)c(C(=O)N3CCN(c4ccccc4)C(=O)C3)c2)n[nH]c(=O)c1C [Example 1, 6-{4-Fluoro-3-[(3-oxo-4-phenylpiperazin-1-yl)carbonyl]benzyl}-4,5-dimethyl-3-oxo-2,3-dihydropyridazin-1-ium trifluoroacetate], the IC50 is reported as < 5 nM.
With Cc1c(Cc2ccc(F)c(C(=O)N3CCN(C4CCCCC4)C(=O)C3)c2)n[nH]c(=O)c1C [Example 2, 6-{3-[(4-Cyclohexyl-3-oxopiperazin-1-yl)carbonyl]-4-fluorobenzyl}-4,5-dimethyl-3-oxo-2,3-dihydropyridazin-1-ium trifluoroacetate] the IC50 was < 5 nM.
With Cc1c(Cc2ccc(F)c(C(=O)N3CCN(C4CCCC4)C(=O)C3)c2)n[nH]c(=O)c1C [Example 3, 6-{3-[(4-Cyclopentyl-3-oxopiperazin-1-yl)carbonyl]-4-fluorobenzyl}-4,5-dimethylpyridazin-3(2H)-one] the IC50 was < 5 nM.
In the case of CCc1cc(Cc2ccc(F)c(C(=O)N3CCN(c4ccccc4)C(=O)C3)c2)n[nH]c1=O [Example 5, 4-Ethyl-6-{4-fluoro-3-[(3-oxo-4-phenylpiperazin-1-yl)carbonyl]benzyl}pyridazin-3(2H)-one trifluoroacetate], the IC50 is reported as < 5 nM.
For CCc1cc(Cc2ccc(F)c(C(=O)N3CCN(C4CCCCC4)C(=O)C3)c2)n[nH]c1=O [Example 6, 6-{3-[(4-Cyclohexyl-3-oxopiperazin-1-yl)carbonyl]-4-fluorobenzyl}-4-ethylpyridazin-3(2H)-one trifluoroacetate], the IC50 was < 5 nM.
In the case of Cc1c(Cc2ccc(F)c(C(=O)N3CCN(Cc4ccc(F)cc4)C(=O)C3)c2)n[nH]c(=O)c1C [Example 8, 3-(4-Fluoro-3-{[4-(4-fluorobenzyl)-3-oxopiperazin-1-yl]carbonyl}benzyl)-4,5-dimethyl-6-oxo-1,6-dihydropyridazin-1-ium trifluoroacetate], the IC50 is reported as < 5 nM.
For Cc1c(Cc2ccc(F)c(C(=O)N3CCN(c4cccc(Cl)c4)C(=O)C3)c2)n[nH]c(=O)c1C [Example 9, 6-(3-{[4-(3-Chlorophenyl)-3-oxopiperazin-1-yl]carbonyl}-4-fluorobenzyl)-4,5-dimethyl-3-oxo-2,3-dihydropyridazin-1-ium trifluoroacetate], the IC50 was < 5 nM.
For Cc1c(Cc2ccc(F)c(C(=O)N3CCN(c4ccc(F)c(Cl)c4)C(=O)C3)c2)n[nH]c(=O)c1C [Example 10, 6-(3-{[4-(3-Chloro-4-fluorophenyl)-3-oxopiperazin-1-yl]carbonyl}-4-fluorobenzyl)-4,5-dimethyl-3-oxo-2,3-dihydropyridazin-1-ium trifluoroacetate], the IC50 was < 5 nM.
For Cc1c(Cc2ccc(F)c(C(=O)N3CCN(c4ccc(F)c(F)c4)C(=O)C3)c2)n[nH]c(=O)c1C [Example 11, 6-(3-{[4-(3,4-Difluorophenyl)-3-oxopiperazin-1-yl]carbonyl}-4-fluorobenzyl)-4,5-dimethyl-3-oxo-2,3-dihydropyridazin-1-ium trifluoroacetate], the IC50 was < 5 nM.
With Cc1c(Cc2ccc(F)c(C(=O)N3CCN(c4cc(F)cc(F)c4)C(=O)C3)c2)n[nH]c(=O)c1C [Example 12, 6-(3-{[4-(3,5-Difluorophenyl)-3-oxopiperazin-1-yl]carbonyl}-4-fluorobenzyl)-4,5-dimethyl-3-oxo-2,3-dihydropyridazin-1-ium trifluoroacetate] the IC50 was < 5 nM.
Cc1c(Cc2ccc(F)c(C(=O)N3CCN(c4ccc(Cl)cc4)C(=O)C3)c2)n[nH]c(=O)c1C [Example 13, 6-(3-{[4-(4-Chlorophenyl)-3-oxopiperazin-1-yl]carbonyl}-4-fluorobenzyl)-4,5-dimethyl-3-oxo-2,3-dihydropyridazin-1-ium trifluoroacetate] was tested, and the IC50 was < 5 nM.
Cc1c(Cc2ccc(F)c(C(=O)N3CCN(c4ccccc4Cl)C(=O)C3)c2)n[nH]c(=O)c1C [Example 14, 6-(3-{[4-(2-Chlorophenyl)-3-oxopiperazin-1-yl]carbonyl}-4-fluorobenzyl)-4,5-dimethyl-3-oxo-2,3-dihydropyridazin-1-ium trifluoroacetate] was tested, and the IC50 was < 5 nM.
Cc1c(Cc2ccc(F)c(C(=O)N3CCN(c4ccccc4C(F)(F)F)C(=O)C3)c2)n[nH]c(=O)c1C [Example 15, 6-[4-Fluoro-3-({3-oxo-4-[2-(trifluoromethyl)phenyl]piperazin-1-yl}carbonyl)benzyl]-4,5-dimethyl-3-oxo-2,3-dihydropyridazin-1-ium trifluoroacetate] was tested, and the IC50 was < 5 nM.
Cc1c(Cc2ccc(F)c(C(=O)N3CCN(c4ccc(F)cc4Cl)C(=O)C3)c2)n[nH]c(=O)c1C [Example 16, 6-(3-{[4-(2-Chloro-4-fluorophenyl)-3-oxopiperazin-1-yl]carbonyl}-4-fluorobenzyl)-4,5-dimethyl-3-oxo-2,3-dihydropyridazin-1-ium trifluoroacetate] was tested, and the IC50 was < 5 nM.
With CCN1CCN(C(=O)c2cc(Cc3n[nH]c(=O)c(C)c3C)ccc2F)CC1=O [Example 17, 6-{3-[(4-Ethyl-3-oxopiperazin-1-yl)carbonyl]-4-fluorobenzyl}-4,5-dimethylpyridazin-3(2H)-one trifluoroacetate] the IC50 was < 5 nM.
In the case of CCCCN1CCN(C(=O)c2cc(Cc3n[nH]c(=O)c(C)c3C)ccc2F)CC1=O [Example 18, 6-{3-[(4-Butyl-3-oxopiperazin-1-yl)carbonyl]-4-fluorobenzyl}-4,5-dimethylpyridazin-3(2H)-one trifluoroacetate], the IC50 is reported as < 5 nM.
Cc1cc(C)cc(CN2CCN(C(=O)c3cc(Cc4n[nH]c(=O)c(C)c4C)ccc3F)CC2=O)c1 [Example 19, 6-(3-{[4-(3,5-Dimethylbenzyl)-3-oxopiperazin-1-yl]carbonyl}-4-fluorobenzyl)-4,5-dimethylpyridazin-3(2H)-one trifluoroacetate] was tested, and the IC50 was < 5 nM.
COc1ccc(CN2CCN(C(=O)c3cc(Cc4n[nH]c(=O)c(C)c4C)ccc3F)CC2=O)cc1 [Example 20, 6-(4-Fluoro-3-{[4-(4-methoxybenzyl)-3-oxopiperazin-1-yl]carbonyl}benzyl)-4,5-dimethylpyridazin-3(2H)-one trifluoroacetate] was tested, and the IC50 was < 5 nM.
Cc1c(Cc2ccc(F)c(C(=O)N3CCN(CCc4ccccc4)C(=O)C3)c2)n[nH]c(=O)c1C [Example 21, 6-(4-Fluoro-3-{[3-oxo-4-(2-phenylethyl)piperazin-1-yl]carbonyl}benzyl)-4,5-dimethylpyridazin-3(2H)-one trifluoroacetate] was tested, and the IC50 was < 5 nM.
In the case of COc1cccc(N2CCN(C(=O)c3cc(Cc4n[nH]c(=O)c(C)c4C)ccc3F)CC2=O)c1 [Example 22, 6-(4-Fluoro-3-{[4-(3-methoxyphenyl)-3-oxopiperazin-1-yl]carbonyl}benzyl)-4,5-dimethylpyridazin-3(2H)-one trifluoroacetate], the IC50 is reported as < 5 nM.
With Cc1cc(C)cc(N2CCN(C(=O)c3cc(Cc4n[nH]c(=O)c(C)c4C)ccc3F)CC2=O)c1 [Example 23, 6-(3-{[4-(3,5-Dimethylphenyl)-3-oxopiperazin-1-yl]carbonyl}-4-fluorobenzyl)-4,5-dimethylpyridazin-3(2H)-one trifluoroacetate] the IC50 was < 5 nM.
Cc1c(Cc2ccc(F)c(C(=O)N3CCN(C4CCCCC4)C(=O)C3)c2)n[nH]c(=O)c1C(F)(F)F [Example 25, 3-{3-[(4-Cyclohexyl-3-oxopiperazin-1-yl)carbonyl]-4-fluorobenzyl}-4-methyl-6-oxo-5-(trifluoromethyl)-1,6-dihydropyridazin-1-ium trifluoroacetate] was tested, and the IC50 was < 5 nM.
For Cc1c(Cc2ccc(F)c(C(=O)N3CCN(c4ccc(F)c(F)c4)C(=O)C3)c2)n[nH]c(=O)c1C(F)(F)F [Example 26, 3-(3-{[4-(3,4-Difluorophenyl)-3-oxopiperazin-1-yl]carbonyl}-4-fluorobenzyl)-4-methyl-6-oxo-5-(trifluoromethyl)-1,6-dihydropyridazin-1-ium trifluoroacetate], the IC50 was < 5 nM.
With O=C(c1cc(Cc2cc(C(F)(F)F)c(=O)[nH]n2)ccc1F)N1CCN(C2CCCCC2)C(=O)C1 [Example 27, 6-{3-[(4-Cyclohexyl-3-oxopiperazin-1-yl)carbonyl]-4-fluorobenzyl}-3-oxo-4-(trifluoromethyl)-2,3-dihydropyridazin-1-ium trifluoroacetate] the IC50 was < 5 nM.
With CCc1c(Cc2ccc(F)c(C(=O)N3CCN(C4CCCCC4)C(=O)C3)c2)n[nH]c(=O)c1C [Example 28, 3-{3-[(4-Cyclohexyl-3-oxopiperazin-1-yl)carbonyl]-4-fluorobenzyl}-4-ethyl-5-methyl-6-oxo-1,6-dihydropyridazin-1-ium trifluoroacetate] the IC50 was < 5 nM.
For CCc1c(C)c(Cc2ccc(F)c(C(=O)N3CCN(C4CCCCC4)C(=O)C3)c2)n[nH]c1=O [Example 29, 3-{3-[(4-Cyclohexyl-3-oxopiperazin-1-yl)carbonyl]-4-fluorobenzyl}-5-ethyl-4-methyl-6-oxo-1,6-dihydropyridazin-1-ium trifluoroacetate], the IC50 was < 5 nM.
CCc1cc(Cc2ccc(F)c(C(=O)N3CCN(C4CCCC4)C(=O)C3)c2)n[nH]c1=O [Example 30, 3-{3-[(4-Cyclopentyl-3-oxopiperazin-1-yl)carbonyl]-4-fluorobenzyl}-5-ethyl-6-oxo-1,6-dihydropyridazin-1-ium trifluoroacetate] was tested, and the IC50 was < 5 nM.
With Cc1c(Cc2ccc(F)c(C(=O)N3CCN(c4cc(Cl)cc(Cl)c4)C(=O)C3)c2)n[nH]c(=O)c1C [Example 42, 3-(3-{[4-(3,5-Dichlorophenyl)-3-oxopiperazin-1-yl]carbonyl}-4-fluorobenzyl)-4,5-dimethyl-6-oxo-1,6-dihydropyridazin-1-ium trifluoroacetate] the IC50 was < 5 nM.
